The series can be described thus: Caco-2 monolayer bidirectional permeability. The series is classed as in vitro ADME. Conditions: human, Caco-2, pH 7.4, control P-gp substrate, read-out: Polarization Ratio mean (B-A/A-B). As for the experimental part: Permeability studies were conducted by an outside contractor on behalf of the assignee of the present invention and application to determine the permeability of Compound A through Caco-2 monolayers. An important factor of oral bioavailability is the ability of e compound to be absorbed in the small intestine. […] Monolayer integrity was evaluated by pre-experimental trans-epithelial electrical resistance (TEER) measurements and post-experimental lucifer yellow A to B flux determinations. […] The donor and receiver solutions were added to the apical or basolateral chambers of the monolayers (depending on the direction of transport to be measured). […] Samples were analyzed by LC/MS/MS using peak area ratios to an internal standard. Test article concentrations were calculated based on the peak area ratios obtained for appropriate dilutions of the donor solution containing the test article at the nominal concentration in transport buffer. […] Comparator and control samples were analyzed by liquid scintillation counting. Lucifer yellow concentrations were determined using a fluorescence plate reader.
For orientation: Passage across Caco-2 layers is used to estimate intestinal permeability.

In the case of `C[C@H]1O[C@@H](O[C@H]2[C@@H](O)C[C@H](O[C@H]3[C@@H](O)C[C@H](O[C@H]4CC[C@@]5(C)[C@H](CC[C@@H]6[C@@H]5C[C@@H](O)[C@]5(C)[C@@H](C7=CC(=O)OC7)CC[C@]65O)C4)O[C@@H]3C)O[C@@H]2C)C[C@H](O)[C@@H]1O` [digoxin, reference compound], the efflux ratio at 90 min, 5 μM came to 5.4.

The values above are taken from patent US20150374709A1, “TETRA-SUBSTITUTED NDGA DERIVATIVES VIA ETHER BONDS AND CARBAMATE BONDS AND THEIR SYNTHESIS AND PHARMACEUTICAL USE” (ERIMOS PHARMACEUTICALS LLC, priority 2006, published 2015).
